Data published in the supplement of paper PMC3334620.
The full ranking holds about 33,000 sequences; the median of “E-score (-0.5 to 0.5)” is about -0.0059, and the highest 2% start at about 0.26. This is one part of the list.

molecular target: T1, Cin5 (UniProt P40917); assay: PBM E-score (8-mer binding enrichment) (E-score (-0.5 to 0.5)); higher = stronger / more preferred TF binding; conditions: protein concentration: 100 nM; construct: GST-full length
T1 sequence: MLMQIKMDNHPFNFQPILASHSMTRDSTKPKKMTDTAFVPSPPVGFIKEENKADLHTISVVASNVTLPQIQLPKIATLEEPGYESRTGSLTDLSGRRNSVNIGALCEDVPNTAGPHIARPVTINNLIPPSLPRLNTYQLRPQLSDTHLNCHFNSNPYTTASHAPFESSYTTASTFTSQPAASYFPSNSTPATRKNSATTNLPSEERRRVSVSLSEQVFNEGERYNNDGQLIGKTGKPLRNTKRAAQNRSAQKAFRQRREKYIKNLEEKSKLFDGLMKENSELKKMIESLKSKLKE
Method in brief: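 PURExpress in vitro transcription/translation supplied GST-tagged yeast transcription factors, either full-length or DNA-binding domain. Applied at about 100-200 nM to universal all-10-mer Agilent arrays double-stranded by primer extension, the bound protein was detected with fluorescent anti-GST. E-scores, modified Wilcoxon-Mann-Whitney statistics, were given by the Universal PBM Analysis Suite to ungapped eight-base words pooled with their reverse complements after masliner normalisation.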

Sequence	PBM E-score
CTTTATTA	0.0651
CATCCGCA	0.128
CGACGACG	-0.0571
TGGGTCAA	0.0321
CACGTTCC	-0.177
CATCTAGC	0.0347
ACCGGTTC	-0.122
ATGAAGCG	-0.2
CGCGACGA	0.106
CAAGCTAG	-0.143
CAAACACA	0.0789
AGAGTAGA	0.00965
AGGTCGCC	-0.0498
AGCCATAC	-0.178
TGCACAAA	-0.0813
CCCGGATC	0.138
CAGGGTCG	-0.236
CTCTTTTA	-0.209
AGGTTCCG	0.149
AAAGATCC	0.0292
CTTTTTAC	0.0385
ATGGTAAA	0.155
CGGAATAA	0.0669
AAGATCGT	0.0211
CACTGCAC	-0.0442

Sequence	PBM E-score
AGTTCTTG	0.0161
GTGTGTGA	0.0728
ATGGCAAC	0.137
GAATGGTA	0.0546
AAATCGTA	0.221
GTTCTTCA	-0.0175
CACACAGG	0.0402
ACAGACTC	-0.178
GATGTTGC	0.12
GCTGCCAA	-0.037
ATATGGCA	0.0205
CACCCACG	0.0558
CGCTGTCA	-0.139
ACCAGTTA	0.142
AATCCTCG	0.00451
AGTGTCTC	-0.175
CCGTTTAA	0.0312
GCTGCGGA	-0.105
GGACCCTA	-0.267
GTGTATCA	0.202
ACAACAAG	0.116
CAGCACAC	-0.286
ACGTGCAT	-0.0505
CTAGCACA	-0.122
ACTTCCCC	-0.151

Four entries drawn at random from the list so far:
Sequence	PBM E-score
AGTGTCTC	-0.175
GGACCCTA	-0.267
ACAGACTC	-0.178
GCTGCGGA	-0.105

Further results:

Sequence	PBM E-score
TTCGACAA	0.00362
CCCCAACG	0.0439
CGAGTAAC	0.0866
ACTCGTCA	0.0152
CTTAGGGA	-0.365
AAGTTAGG	-0.0568
AGTGTCAG	0.0559
ACTCCATC	0.144
ATTAACCG	0.158
CAGTACTG	-0.141
ATGGATGC	0.0484
GACTCTAC	-0.183
TACTGGAA	0.0953
GGAGGGCA	-0.241
CGGTCTAG	-0.0383
AAAATACG	0.0862
CAATTTCA	0.0124
CACAGCGC	0.073
GTCCTAAC	-0.11
CAATCGTA	0.121
ACTAGGGC	-0.106
AAGGGGGG	-0.48
CGCCGCCG	-0.0326
ATCCAAAG	0.126
GGGTAACA	0.00503

Sequence	PBM E-score
CACGCGTC	0.145
ATATAATA	0.303
CGCCATGC	-0.086
CACGGGGC	-0.17
CGCCGTGA	-0.0112
AGAGGTCA	-0.00668
GGGGGACA	-0.178
CGTGGAAG	0.129
CGCCTTAA	0.0262
CATTCACG	-0.098
GGTGTGGA	0.0929
GGACCTAA	-0.0416
ATCACTTC	0.196
AGACCCTC	-0.257
CCCTTAAC	-0.173
CACGGGCA	-0.189
CAGTAACC	-0.021
CTTCTGGC	-0.0974
AACTTTGT	0.13
GGTTATCA	0.0603
ATTCCCCA	0.202
CTTTTGTA	0.205
AGCGAGAC	-0.0151
CTCATGCC	-0.0927
ACGACGGG	-0.125

Sequence	PBM E-score
CCTGGACA	-0.24
GTGGTGAA	-0.0496
TGCAACCA	-0.0636
CCTAGTAC	-0.00963
CTGCACCA	-0.126
CCAGGCAA	-0.0365
CGTTCAAA	-0.0884
AGTTCCTG	-0.0496
CATTGCGA	0.0649
TGGCTCAA	-0.142
AATCTGAT	0.141
CCTCTTAC	0.0863
GGGTTAAC	-0.0533
AGCAAACA	0.227
CCAGGTCA	-0.21
CAGCGTCA	-0.26
GGATTCCC	-0.2
CATTGAGA	0.0475
ACTACCTA	0.096
CCCTAGCA	-0.0782
GCTCTGCC	-0.298
GTGTAGAA	-0.027
CTATAGAC	-0.149
CGACGAAG	-0.0192
AGCTTGGG	0.0734

Sequence	PBM E-score
GGTTTGCA	0.0992
AATTACCC	0.155
CCAAAGCA	0.0728
CCAGAACC	-0.0649
CAGAATGA	0.0817
GAAATGAA	0.275
ATCCTTGC	-0.0994
AACCATTG	-0.0545
AACGGGAC	-0.151
TGTTCTAA	0.174
CACCCCGA	-0.0528
GCACGTCC	-0.061
CGCGCGCA	0.227
ATCCTCGC	0.0113
ATAAGCAG	0.33
ACCCGGGC	-0.139
ACTATACC	0.0743
CGTACGGA	0.0565
CCTAGAGG	-0.25
GTTGACCA	0.0329
AAGTTACT	0.0383
TCAATACA	0.13
AGCGAGTG	0.00194
AATGAAAG	0.0582
AAGAGTCA	-0.12

Sequence	PBM E-score
ATAACACC	0.054
GTGTGCTA	0.00044
ATATCTCG	-0.0133
CATGCGTC	-0.134
AGCCGAGC	-0.0946
GAGCGAAC	-0.0644
CGGTATGA	0.0284
GAGCGTCA	-0.0972
GGTGTCTA	-0.005
GGGTGAAA	0.0803
AGATTAAG	0.0973
AGGGTAGC	-0.121
AGTCGACG	0.218
TGGCGCAA	-0.0192
GCCGTGAA	0.0821
ATTAACTC	0.17
AGAGCACC	-0.141
ACGTGATA	0.102
AAAAAAGA	0.0721
CTACTCGA	-0.00691
AATTAGCA	0.191
TCACCGAA	-0.0145
AGCGGACA	-0.0571
ACATAAAC	0.263
ATTAACGC	0.0183

Quoted from the listing.
AGCTTGGG – PBM E-score: 0.0734
GCCGTGAA – PBM E-score: 0.0821
CATCCGCA – PBM E-score: 0.128
ACCGGTTC – PBM E-score: -0.122
ATGGATGC – PBM E-score: 0.0484

Additional results follow:

Sequence	PBM E-score
TCGCCAGA	-0.105
AATAAACC	0.216
CATACTCG	0.189
AGACAGCA	0.0211
ACCGAAAG	-0.129
AAGTGTTA	0.082
TACTACAA	0.257
CAGTCCAA	-0.117
ACACGAGA	-0.0454
ATGGGCCA	-0.0218
AATATAAC	0.244
AAATGGTT	0.0663
CGCCCGAC	-0.00944
CTAGTACC	-0.112
ACGAGAAG	-0.156
GTAGGATA	0.0391
AATCCACG	0.0163
TAAGCATA	0.252
ATGAAGTC	-0.0217
GTTTGTTA	0.0839
ATGCGCGG	0.00512
AAACTGCG	-0.0384
ATTGATCG	0.158
ATGGCAGA	0.0884
CCGCGCCG	-0.131

Sequence	PBM E-score
CCCGAGTC	-0.0328
ATGATGCG	0.0905
CAACGTGA	-0.107
TACGTTCA	0.113
CACACCAC	0.201
AATCCTTC	-0.0854
ACACCAAC	0.00809
GGTCCGAA	0.0406
ACGCTACA	0.2
GCGGAACC	0.139
TCACAGGA	0.0472
CCATCTTC	0.0837
TACATATA	0.243
AGACTAGA	-0.232
TGTTGTAA	0.205
CCTTGCCC	-0.0332
AGCCAAGG	0.0802
AAAACTTA	0.142
ATAACTTG	0.166
TCCGTCAA	0.17
ATTTACAA	0.151
AATAACCG	-0.00942
AATTTCAG	-0.0627
ACAGCAAG	0.204
ACGGCCCC	-0.341

Sequence	PBM E-score
AGGGGGGC	-0.479
AACTAGCC	-0.0212
GAAGCGGC	-0.171
GACGTGAA	-0.139
CTAGTCGC	-0.209
CTAGACAA	-0.0647
CAGGAACA	-0.0229
CCAAGTGG	-0.0395
GTATTGCA	0.0735
TATATTCA	0.235
TCTGTGAA	0.0383
CCCGATAA	-0.0584
CAGTTATA	0.073
TAGTACCA	0.0162
CGCTCGGA	0.105
AACCCCTC	-0.0978
ACCTTCCT	-0.197
CCGTAGAC	-0.157
CAATAACG	0.0405
CAAAAAAA	0.221
CATCAGCG	0.00868
ACGTGTTC	-0.146
TACGCTAA	0.116
TATATGGA	0.174
AGTTCCAC	0.0751

Sequence	PBM E-score
ATCCAAAC	0.19
CGGCGCGC	-0.0242
AACCAGCC	-0.11
AGATTCAC	-0.0994
CTTATTTA	0.164
TAGGCCGA	-0.22
AAAAGGTC	-0.196
CTGTTTTA	0.195
CAACATGC	0.117
CGAGTGGA	-0.14
GCACCGGA	-0.195
CCAATACC	0.0345
CGTCCGTA	0.045
ACCTAGAT	0.0544
CAACAATC	0.209
CTTGTCCA	0.0549
CAACTCGC	0.159
CCCTCTAA	-0.2
ATAGCGAA	0.162
GTCACAGA	0.15
CACGTACG	-0.0318
TGAGAGAA	0.0296
AGACGGTC	-0.165
ATACAGTA	0.124
CAGCCGCG	0.0208

Sequence	PBM E-score
CCGGGCAG	-0.271
TATTTCCA	0.0646
CGGAGCCC	-0.336
AGAAGACA	0.00376
AGGAGAGC	-0.394
CTATAGCA	0.0316
AAGCGTTG	-0.0172
ACCGTGAC	-0.108
ACTTGACC	-0.117
AAAAATGG	0.183
TCCATACA	0.069
CGTGGTAC	-0.222
GGCTCACA	-0.0409
GACACGTA	-0.0377
CATGTCGG	0.0346
CAGCGTAG	-0.0461
AAGGACCG	-0.0654
AGCGTCTC	-0.169
CATTCAAG	-0.0484
CTACTTAA	-0.0293
GAGTATGC	0.0732
AGTCCTAG	-0.26
CCTCCGTA	-0.0143
CTCCGGTC	-0.18
GAATGGCC	0.0115

Sequence	PBM E-score
CAGTCGTC	-0.182
CATCGAGC	0.0681
CCTCCTGA	-0.173
GGACTTAC	-0.103
ATGAGATA	0.183
TCCGAGGA	-0.124
CCCGTCTC	-0.199
CCGGTCCG	-0.145
GCACCCAA	-0.0435
ATGGGTTG	0.211
CTAAGCAG	0.042
TCAATCCA	0.133
GCGATCAA	-0.0741
GTCATGTA	-0.0945
GATTGGCA	-0.0885
CGTAGGCC	-0.0722
GCCCTCGA	-0.22
AGCGTATC	-0.129
CTACCCTC	-0.0575
ACCAGCAA	0.11
ACGAGCCT	-0.198
AGCTAGAC	-0.135
ACTCCGGC	0.103
GATGCTAA	0.147
AAGCATAA	0.0942

Sequence	PBM E-score
GACAACTA	0.157
ATCGTAGC	0.0582
AAAGAGAC	0.0341
ATGCATCG	0.098
GAATGTTA	0.118
AGCGTCCG	-0.102
AGTGTGAA	0.202
AATTTAGG	0.168
ACGGCGAC	-0.0622
CGGATTTA	0.136
CCAGCAAC	-0.0338
AGAGGCAT	-0.0753
AGACATAC	0.0227
CATTCGCG	0.127
CGACGGGC	-0.112
CTAACGGC	-0.0688
CAAGCATG	-0.0243
CAATTCAA	0.0846
ACCTTAAT	0.11

An excerpt of the results above:
Sequence	PBM E-score
ATCCAAAC	0.19
CGGCGCGC	-0.0242
AACCAGCC	-0.11
AGATTCAC	-0.0994
CTTATTTA	0.164
